The source of these data is paper PMC10816710.

Protein sequences, listed by entry. Tags and fused reporters are not part of them.
UniProt P55737: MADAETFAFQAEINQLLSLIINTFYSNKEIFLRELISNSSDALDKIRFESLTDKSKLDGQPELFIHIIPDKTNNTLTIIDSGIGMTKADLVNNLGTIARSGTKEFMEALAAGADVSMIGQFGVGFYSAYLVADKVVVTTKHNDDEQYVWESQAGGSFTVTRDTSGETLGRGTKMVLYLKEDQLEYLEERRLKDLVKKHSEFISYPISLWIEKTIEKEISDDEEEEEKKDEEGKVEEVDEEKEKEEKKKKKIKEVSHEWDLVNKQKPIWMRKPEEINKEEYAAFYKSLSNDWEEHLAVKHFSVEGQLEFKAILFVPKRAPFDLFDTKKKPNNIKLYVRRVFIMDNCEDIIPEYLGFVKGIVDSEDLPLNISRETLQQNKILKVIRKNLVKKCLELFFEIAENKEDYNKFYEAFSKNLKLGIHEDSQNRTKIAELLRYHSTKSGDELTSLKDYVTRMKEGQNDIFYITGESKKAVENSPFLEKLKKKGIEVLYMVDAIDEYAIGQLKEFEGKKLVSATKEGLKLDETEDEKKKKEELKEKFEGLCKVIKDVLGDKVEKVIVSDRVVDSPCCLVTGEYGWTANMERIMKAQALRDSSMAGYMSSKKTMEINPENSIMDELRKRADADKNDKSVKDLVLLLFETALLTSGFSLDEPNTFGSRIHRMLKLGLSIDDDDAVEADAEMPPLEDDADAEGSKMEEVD

No constants are given. Whether binding was seen depends on the method and setting. In cells and extracts the contact can be indirect. Here binding means that the protein was enriched with, or labelled near, the bait; the list need not be complete. Where a sequence is shown, tags or fusion partners need not be part of it.

The experiment concerns the target T1, APRF1-FLAG (FLAG-tagged ANTHESIS PROMOTING FACTOR 1) (Arabidopsis thaliana) (UniProt Q9LYK6).
T1 sequence: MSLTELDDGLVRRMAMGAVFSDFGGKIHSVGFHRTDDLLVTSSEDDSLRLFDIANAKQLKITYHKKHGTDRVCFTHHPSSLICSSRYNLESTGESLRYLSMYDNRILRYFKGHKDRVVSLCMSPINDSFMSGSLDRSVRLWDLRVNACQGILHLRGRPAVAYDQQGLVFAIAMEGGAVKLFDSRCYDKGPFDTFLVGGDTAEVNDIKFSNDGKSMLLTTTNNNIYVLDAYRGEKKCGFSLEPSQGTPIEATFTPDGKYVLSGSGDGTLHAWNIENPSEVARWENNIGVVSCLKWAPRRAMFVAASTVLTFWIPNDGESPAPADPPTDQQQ
Kind of experiment: affinity purification with mass spectrometry; anti-FLAG antibody on protein G magnetic beads, incubated overnight at 4 °C with concentrated total lysate of APRF1-FLAG plants (lines 1 and 3) or WT Col-0 (control); lysis buffer 10% glycerol, 25 mM Tris pH 7.6, 1 mM EDTA, 150 mM NaCl, 0.1% NP40; proteins found only in lines 1 and 3 were kept.

For the substance “HSP90.2 (endogenous) (from UniProt P55737 1-699)”, the binding entry is on record as “binds”.
